The list shows a part of the results. Shown are side measurements of this screen, not its main read-out; they come without a call. The list favours compounds with an active or inconclusive main result. Words in brackets tell the shape of the fitted curve; partial curves, single points and poor fits give uncertain potencies.
Assay: qHTS Assay for Lipid Storage Modulators in Drosophila S3 Cells;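 as to cell number change: cells counted by Cell Tracker Red CMTPX staining in the red channel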
Settings: BODIPY lipid droplet fluorescence, 18-24 h; for cell number change: measured here: cell count max response, cells fed with added oleic acid
Summary of the method: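 Laser-scanning cytometry quantifies lipid droplet accumulation (500–530 nm total intensity; droplet/cell object ratio) in oleic acid-fed (400 uM added) Drosophila S3 cells treated with a concentration series. 20 uM Triacsin C defined 100% inhibition.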

[1] = measured here: cell number channel AC50, cells fed with added oleic acid
[2] = measured here: lipid fluorescence (Fed channel) AC50, cells fed with added oleic acid

Compound	cell number change [%]	AC50 [1]	AC50 [2]
COc1ccc(NC(=O)C2CC(=O)n3cnnc3S2)cc1 (stereo not given)	-41	0.731 µM [falling, full curve]	29.1 µM [falling, single point]
O=C(/C=C/c1ccc(Cl)cc1Cl)N(Cc1ccc(Cl)cc1)C1CCS(=O)(=O)C1 (stereo not given)	–	2.91 µM [falling, single point]	–
CCOC(=O)C1=C(C)N(CCCCCC(=O)O)C(=O)NC1c1ccc(Br)cc1 (stereo not given)	16.5	–	3.26 µM [falling, full curve, poor fit]
COCCN(C(=O)COC(=O)/C=C/c1ccco1)c1c(N)n(Cc2ccccc2)c(=O)[nH]c1=O	-14.4	–	29.1 µM [falling, single point]
O=C(OCC(=O)c1c[nH]c2ccccc12)c1cccc([N+](=O)[O-])c1	1.43	–	0.00411 µM [rising, full curve, poor fit]
CCNC(=O)CC1C(=O)N(c2ccc(C)cc2)C(=O)N1Cc1ccccn1 (stereo not given)	-5.81	–	0.326 µM [falling, full curve]
COc1ccc(C(C)=O)cc1COc1ccc(-n2cnnn2)cc1	51.1	2.31 µM [rising, partial curve]	0.58 µM [rising, single point]
O=[N+]([O-])c1ccccc1/C=N/N1CCN(Cc2ccccc2)CC1	–	–	0.92 µM [falling, full curve]
CCCCCCCCCCCCOC1OC(CO)C(O)C(O)C1NC(C)=O (stereo not given)	-0.663	–	–
COc1ccc(N2CCN(C(=O)COC(=O)Cc3c(F)cccc3Cl)CC2)cc1	50.5	7.31 µM [rising, partial curve]	–
Fc1ccc(C(c2ccc(F)cc2)N2CCN(C/C=C/c3ccccc3)CC2)cc1	-61.8	18.4 µM [falling, partial curve]	29.1 µM [falling, single point]
COC(=O)CN1C(=O)[C@H]2[C@@H](/C=C/c3ccccc3)N3C(=O)CN(CCO)C(=O)[C@@]3(Cc3ccccc3)[C@H]2C1=O	24.9	0.82 µM [rising, full curve, poor fit]	29.1 µM [rising, single point]
CCOC(=O)c1cc2cc(F)ccc2nc1C	90.2	–	–
O=C(NNC(=O)c1csc(N2CCOCC2)n1)c1cccnc1	20.6	–	29.1 µM [falling, single point]
Nc1c(C(=O)CSc2nc3ccccc3o2)c(=O)[nH]c(=O)n1C1CC1	-2.49	–	29.1 µM [falling, single point]
O=C(OCc1cccc(C(F)(F)F)c1)c1ccc[nH]c1=O	-13.5	–	6.51 µM [falling, partial curve]
CN1CCN(C(=O)CSc2ccc(C(F)(F)F)cc2[N+](=O)[O-])CC1	3.09	–	29.1 µM [rising, single point]
COc1ccc(/C=N/NC(N)=S)cc1	24.4	–	–
O=C(O)c1ccc(NS(=O)(=O)c2ccc(N3C(=O)CCC3=O)cc2)cc1	22.6	0.103 µM [rising, full curve, poor fit]	29.1 µM [rising, single point]
COc1ccc(NS(=O)(=O)c2ccc3[nH]c(=O)[nH]c3c2)cc1OC	-2.92	–	0.164 µM [rising, full curve, poor fit]

Compound	cell number change [%]	AC50 [1]	AC50 [2]
Cc1noc(C)c1COC(=O)c1cc(F)c(F)cc1Cl	-2.7	–	0.13 µM [falling, full curve, poor fit]
CN1CCN(C(=O)/C(=C\c2ccccc2)c2ccccc2)CC1	–	–	29.1 µM [falling, single point]
O=C(Nc1ccc(Cl)c(Cl)c1)c1cccc(S(=O)(=O)NCc2cccnc2)c1	3.97	–	–
O=C(Cc1c(F)cccc1Cl)NCC(=O)OCc1ccccc1	-9.24	–	–
CCCCC(O)(CCCC)C(=O)NN(C(=O)OC)c1ccc(C)cc1	-18.7	0.116 µM [falling, full curve, poor fit]	0.206 µM [falling, full curve, poor fit]
Cc1ccccc1Nc1nnc(SCC(=O)NCc2ccco2)s1	20.5	–	18.4 µM [rising, single point]
Cc1csc(NC(=O)c2ccc(Cn3nc(C)c(Br)c3C)o2)n1	–	–	5.8 µM [falling, partial curve]
COc1cc(-c2noc(C)c2C#CC2(O)CCCCC2)cc(OC)c1OC	-12	–	8.2 µM [falling, partial curve, poor fit]
COc1cccc(NC(=O)CN(C)C(=O)c2ccc(N3CCCCC3)c([N+](=O)[O-])c2)c1	3.63	–	0.092 µM [falling, full curve, poor fit]
Cn1nc(C(=O)NCCc2ccc3c(c2)OCCO3)c2ccccc2c1=O	39.4	11.6 µM [rising, single point]	–
Cc1nn(Cc2ccc(F)cc2)c(Cl)c1/C=N/NC(=O)c1cccnc1	–	0.651 µM [falling, partial curve, poor fit]	–
O=S(=O)(NCc1cccs1)c1ccccc1Cl	37.7	5.17 µM [falling, single point]	32.6 µM [rising, single point]
Fc1ccc(C[n+]2csc3ccccc32)cc1	-14.3	–	–
CCN1CCN(C(=O)CN(c2ccc(C)cc2)S(C)(=O)=O)CC1	1.26	–	–
CN(Cc1cccs1)C(=O)CCNS(=O)(=O)c1ccc(Br)cc1	-40.2	14.6 µM [falling, partial curve]	–
O=C(c1cnn2c(C(F)(F)F)cc(-c3ccccc3)nc12)N1CCCCC1c1cccnc1 (stereo not given)	–	0.146 µM [falling, full curve, poor fit]	–
COc1ccc(-c2nc(-c3ccc(NC(=O)c4ccncc4)cc3)no2)cc1OC	-14.8	–	18.4 µM [falling, single point]
CCN1C(=S)N[C@@H](CCc2ccccc2)[C@H](C(=O)OC)[C@H]1C	-9.9	–	–
CC(C)CC(=O)NC(=S)Nc1cccc(NC(=O)c2ccccc2)c1	–	–	2.06 µM [rising, partial curve, poor fit]

Quoted at random: 2 compounds from above, in no set order.
Compound	cell number change [%]	AC50 [1]	AC50 [2]
CCN1C(=S)N[C@@H](CCc2ccccc2)[C@H](C(=O)OC)[C@H]1C	-9.9	–	–
Cc1csc(NC(=O)c2ccc(Cn3nc(C)c(Br)c3C)o2)n1	–	–	5.8 µM [falling, partial curve]

Reference: PubChem BioAssay AID2685 (National Center for Advancing Translational Sciences (NCATS), 2010)
